# Experimental data reported in PubChem BioAssay AID493014 (National Center for Advancing Translational Sciences (NCATS), 2011).
# Some of the results follow. Further columns of the screen follow, without active or inactive calls. The list favours compounds with an active or inconclusive main result. Words in brackets tell the shape of the fitted curve; partial curves, single points and poor fits give uncertain potencies.
# Test: qHTS Assay to Find Inhibitors of Chronic Active B-Cell Receptor Signaling
# Settings: ABC-DLBCL IkBa-CBG/CBR reporter, luminescence ratio (green luciferase fused to IkBa over red control in TMD8 lymphoma cells), 4 h
# Summary of the method: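 TMD8 human ABC-DLBCL cells with doxycycline-inducible IκBα–green luciferase fusion and unfused red luciferase, in 0.5% FBS medium; compounds up to 46 uM, 4 h at 37C. Green/red luminescence ratio, filter-overlap corrected, fitted to concentration-response curves.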
# [1] = measured here: CBR red luminescence, cell number
Compound,AC50 [1],AC50 (measured here: IkBa-CBG green luminescence)
COc1cc(NC(=O)c2cc3c(Cl)nc4ccccc4c3s2)cc(OC)c1OC,"0.517 µM [rising, full curve, poor fit]",
CC(C)(C)C(=O)C(Cl)C(=O)Nc1ccccc1 (stereo not drawn),"0.1 µM [falling, full curve, poor fit]",
O=C(Nc1c(F)cc(F)cc1Br)c1cc(-c2ccco2)on1,"0.562 µM [falling, full curve, poor fit]",
CCCCc1nnc(NC(=O)C=C(C)C)s1,"32.6 µM [rising, single point]",
COc1ccc(C2(O)CCN(C(=O)c3ccc4c(c3)OCO4)CC2)cc1,"20.6 µM [rising, single point]",
O=Cc1c[nH]c2cccc(OCc3ccccc3)c12,"18.4 µM [falling, single point]",
C/C(=N\NC1=N[C@H]2CS(=O)(=O)C[C@H]2S1)c1ccccc1,"35.5 µM [rising, single point]",
CC(C)(C)c1cc(C(=O)NNc2cc(C(F)(F)F)ccc2Cl)n(Cc2ccccc2)n1,"35.5 µM [falling, single point]",
O=S(=O)(NCCCCCNS(=O)(=O)c1ccccc1)c1ccccc1,"1.64 µM [falling, partial curve, poor fit]",
NC(=O)SCC(=O)Nc1ccc(Cl)cc1,"10 µM [falling, partial curve, poor fit]",
C[C@@H](NC(=O)[C@@H]1Cc2ccccc2CN1)C(=O)Nc1ccc2c(c1)OCCO2,"11.2 µM [falling, partial curve]",
O=C(CSc1ncn[nH]1)N1N=C(c2ccc(Cl)cc2)CC1c1ccco1 (stereo not drawn),"25.1 µM [falling, single point]",
COc1cccc(N2CC(NC(=O)CCCc3ccccc3)CC2=O)c1 (stereo not drawn),"1.78 µM [rising, partial curve]",
COc1ccc(OC)c(/C=N/NC(=O)c2[nH]nc3c2CCc2ccccc2-3)c1,"10.3 µM [falling, partial curve, poor fit]",
CCCCN1CC2([N+](=O)[O-])C=CC(=O)C([N+](=O)[O-])(C1)C2CC(=O)c1ccccc1 (stereo not drawn),"11.6 µM [rising, partial curve, poor fit]",
Cc1ccc(C2=Nc3ccccc3SC(c3cccc([N+](=O)[O-])c3)C2)cc1 (stereo not drawn),"20 µM [rising, single point]","35.5 µM [falling, single point]"
CCOC(=O)c1c(-c2ccccc2)n(C)c2ccc(O)cc12,"9.2 µM [rising, partial curve, poor fit]",

# Two records picked at random from those above, as already listed:
Compound,AC50 [1],AC50 (measured here: IkBa-CBG green luminescence)
Cc1ccc(C2=Nc3ccccc3SC(c3cccc([N+](=O)[O-])c3)C2)cc1 (stereo not drawn),"20 µM [rising, single point]","35.5 µM [falling, single point]"
O=C(Nc1c(F)cc(F)cc1Br)c1cc(-c2ccco2)on1,"0.562 µM [falling, full curve, poor fit]",
